# Counter-ions that a name gives are not always drawn. The list shows a part of the results. Repeats are few or missing, and single values can be far off.
# Experiments:
# [1] = tested on: Saos-2; assay: cell viability (CCK-8) relative to DMSO control (% of control); higher = less cytotoxic; conditions: 10 µM; 48 h
# [2] = tested on: U2OS; assay: as above; conditions: 10 µM; 48 h
SMILES,cell viability [1],cell viability [2]
CC(=O)Oc1ccccc1C(=O)O [Aspirin (Acetylsalicylic Acid)],65.6,97.7
OC(c1cc(C(F)(F)F)nc2c(C(F)(F)F)cccc12)C1CCCCN1 (configuration not stated) [Mefloquine . hydrochloride],51,36.2
CNCCCC1c2ccccc2C=Cc2ccccc21 [Protriptyline·HCl],102,98.4
C[C@@H](O)[C@H]1C(=O)N2C(C(=O)O)=C(SCCNC=N)C[C@H]12 [Imipenem],58.1,124
Clc1ccc(CCC(Cn2ccnc2)Sc2c(Cl)cccc2Cl)cc1 (configuration not stated) [Butoconazole Nitrate],71.7,132
Cc1cn([C@H]2C[C@H](N=[N+]=[N-])[C@@H](CO)O2)c(=O)[nH]c1=O [Zidovudine],64.8,102
O=C(O)c1cc(=O)c2c(OCC(O)COc3cccc4oc(C(=O)O)cc(=O)c34)cccc2o1 [Cromolyn·Na (Disodium Cromoglycate)],57.9,110
CCc1c2c(nc3ccc(OC(=O)N4CCC(N5CCCCC5)CC4)cc13)-c1cc3c(c(=O)n1C2)COC(=O)[C@]3(O)CC [Irinotecan . hydrochloride . trihydrate],52.6,84.2
Nc1nc(=O)[nH]cc1F [Flucytosine],118,78.3
c1ccc2c(CC3=NCCN3)cccc2c1 [Naphazoline·HCl],71.2,95.7
CNC(C)C1CCC(N)C(OC2C(N)CC(N)C(OC3OCC(C)(O)C(NC)C3O)C2O)O1 (configuration not stated) [Gentamycin Sulfate],67,95.9

# Full records from above. Values in the order: cell viability [1] | cell viability [2]
# CCc1c2c(nc3ccc(OC(=O)N4CCC(N5CCCCC5)CC4)cc13)-c1cc3c(c(=O)n1C2)COC(=O)[C@]3(O)CC [Irinotecan . hydrochloride . trihydrate] as listed: 52.6 | 84.2
# Nc1nc(=O)[nH]cc1F [Flucytosine] as listed: 118 | 78.3
